Results reported in publication PMC3758148.
No constants are given. Whether binding was seen depends on the method and setting. Tags and fused reporters may be left off the sequences shown.

Target: 23S rRNA methyltransferase RlmJ from Escherichia coli, recombinant, with C-terminal hexahistidine tag (E. coli K-12 MG1655) (UniProt P37634)
Experiment: SEC; HiLoad 16/60 Superdex 75, buffer A (20 mM Tris-H2SO4 pH 7.5, 150 mM Na2SO4, 5% glycerol, 5 mM beta-mercaptoethanol), room temperature; after Ni-affinity step; apparent mass against protein standards; both purified

- binding: no binding
B1: 23S rRNA methyltransferase RlmJ from Escherichia coli, recombinant, with C-terminal hexahistidine tag (enzyme, UniProt P37634 1-280)
chain: MLSYRHSFHAGNHADVLKHTVQSLIIESLKEKDKPFLYLDTHAGAGRYQLGSEHAERTGEYLEGIARIWQQDDLPAELEAYINVVKHFNRSGQLRYYPGSPLIARLLLREQDSLQLTELHPSDYPLLRSEFQKDSRARVEKADGFQQLKAKLPPVSRRGLILIDPPYEMKTDYQAVVSGIAEGYKRFATGIYALWYPVVLRQQIKRMIHDLEATGIRKILQIELAVLPDSDRRGMTASGMIVINPPWKLEQQMNNVLPWLHSKLVPAGTGHATVSWIVPE
